PubChem BioAssay AID1053208 | Peter MacCallum Cancer Centre | 2014
Aim: 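Find knock-downs that sensitise mouse osteosarcoma cells to doxorubicin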 (primary screen). System: mouse osteosarcoma cells, early-passage culture from an engineered mouse model of fibroblastic bone tumour. Reagent: siRNA pool against mouse genes, 40 nM. Duration: about 120 h (48 h before drug, then 72 h with drug). Treatment: doxorubicin 100 nM for 72 h, roughly 30-40% inhibitory dose. Measured: 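Viability read as ATP luminescence after 72 h of 100 nM doxorubicin or none, duplicate wells averaged, scaled to non-targeting siRNA, then expressed as robust z-scores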. Direction: viability z-score with doxorubicin: higher = more viable cells under doxorubicin; viability z-score without drug: higher = more viable cells with knock-down alone. Rule for the call: 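Called active if knock-down leaves viability unchanged without drug (z within -2 to 2) but lowers it with doxorubicin (z at or under -2)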.
The deposit covers about 17,000 reagents; this is an unselected part. Of all reagents, 788 (4.7%) were called active. 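Calls rest on z-score classes alone; an extra cut-off of viability at most 70% of control was not applied to them.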 Further read-outs or replicates are left out here.

target gene | combined z-score class | viability z-score with doxorubicin | viability z-score without drug | outcome
LTO1 (ABCE maturation factor) | no change with or without drug | -0.34 | 1.18 | inactive
Hivep1 | high cell count with doxorubicin only | 2.25 | 1.18 | inactive
Ddx18 (DEAD box helicase 18) | low cell count without drug only | -0.45 | -2.19 | inactive
Vmn1r235 (vomeronasal 1 receptor 235) | no change with or without drug | -0.45 | -0.84 | inactive
Pygb (brain glycogen phosphorylase) | no change with or without drug | 0.56 | -0.51 | inactive
Satb1 (special AT-rich sequence binding protein 1) | no change with or without drug | 1.46 | 1.01 | inactive
Igsf5 (immunoglobulin superfamily, member 5) | no change with or without drug | -0.67 | -0.17 | inactive
Ntng1 (netrin G1) | high cell count with doxorubicin only | 3.15 | 0.84 | inactive
1700024B05Rik (RIKEN cDNA 1700024B05 gene) | high cell count with and without drug | 2.81 | 2.7 | inactive
Gsdma (gasdermin A) | no change with or without drug | -0.79 | -0.17 | inactive
Arf2 (ARF GTPase 2) | no change with or without drug | -0.67 | -1.52 | inactive
Hsd3b4 | no change with or without drug | 1.57 | -0.34 | inactive

4 entries from above, reduced to “viability z-score with doxorubicin”.
Ddx18 (DEAD box helicase 18) = -0.45
Vmn1r235 (vomeronasal 1 receptor 235) = -0.45
Pygb (brain glycogen phosphorylase) = 0.56
Satb1 (special AT-rich sequence binding protein 1) = 1.46

Continued:
target gene | combined z-score class | viability z-score with doxorubicin | viability z-score without drug | outcome
Rgcc (regulator of cell cycle) | high cell count without drug only | 1.46 | 3.88 | inactive
Trim8 (tripartite motif-containing 8) | no change with or without drug | -0.11 | -0.17 | inactive
Itgax (integrin alpha X) | no change with or without drug | 0.67 | -0.84 | inactive
Zfp532 (zinc finger protein 532) | no change with or without drug | 1.01 | -0.34 | inactive
Spag4 (sperm associated antigen 4) | no change with or without drug | 0.45 | -0.51 | inactive
Or51g2 (olfactory receptor family 51 subfamily G member 2) | low cell count without drug only | -1.69 | -2.53 | inactive
Rtraf (RNA transcription, translation and transport factor) | no change with or without drug | 0.11 | 0.84 | inactive
Gm10033 (predicted gene 10033) | low cell count with doxorubicin only | -2.02 | -0.17 | active
Ssbp2 (single-stranded DNA binding protein 2) | no change with or without drug | -0.67 | -0.51 | inactive
Larp7 (La ribonucleoprotein 7, transcriptional regulator) | no change with or without drug | 0.45 | -0.84 | inactive
Plxna3 (plexin A3) | no change with or without drug | 0.45 | 0 | inactive
Arf6 (ARF GTPase 6) | low cell count with doxorubicin only | -2.25 | -1.52 | active
Mapk8 (mitogen-activated protein kinase 8) | no change with or without drug | 0.9 | 0.51 | inactive
Or51k2 (olfactory receptor family 51 subfamily K member 2) | no change with or without drug | -0.45 | -0.51 | inactive
1700012B09Rik (RIKEN cDNA 1700012B09 gene) | no change with or without drug | -0.11 | 0.51 | inactive
Slc28a2 | no change with or without drug | -0.22 | 1.18 | inactive
Naa35 (N(alpha)-acetyltransferase 35, NatC auxiliary subunit) | no change with or without drug | 0.79 | 0.17 | inactive
Cldn3 (claudin 3) | no change with or without drug | -0.67 | 1.01 | inactive
Or5p53 (olfactory receptor family 5 subfamily P member 53) | no change with or without drug | -1.8 | -1.85 | inactive
Atp4a (ATPase, H+/K+ exchanging, gastric, alpha polypeptide) | no change with or without drug | -0.22 | -1.52 | inactive
AI606181 (expressed sequence AI606181) | no change with or without drug | 0.67 | 1.18 | inactive
Cabcoco1 (ciliary associated calcium binding coiled-coil 1) | no change with or without drug | 1.46 | -0.51 | inactive
